# US20250340662A1
# Sequences of proteins named here, by UniProt entry; tags and fusion partners are left off. A change or cut given only in a name is not applied to a line headed by its entry.
# UniProt P16070: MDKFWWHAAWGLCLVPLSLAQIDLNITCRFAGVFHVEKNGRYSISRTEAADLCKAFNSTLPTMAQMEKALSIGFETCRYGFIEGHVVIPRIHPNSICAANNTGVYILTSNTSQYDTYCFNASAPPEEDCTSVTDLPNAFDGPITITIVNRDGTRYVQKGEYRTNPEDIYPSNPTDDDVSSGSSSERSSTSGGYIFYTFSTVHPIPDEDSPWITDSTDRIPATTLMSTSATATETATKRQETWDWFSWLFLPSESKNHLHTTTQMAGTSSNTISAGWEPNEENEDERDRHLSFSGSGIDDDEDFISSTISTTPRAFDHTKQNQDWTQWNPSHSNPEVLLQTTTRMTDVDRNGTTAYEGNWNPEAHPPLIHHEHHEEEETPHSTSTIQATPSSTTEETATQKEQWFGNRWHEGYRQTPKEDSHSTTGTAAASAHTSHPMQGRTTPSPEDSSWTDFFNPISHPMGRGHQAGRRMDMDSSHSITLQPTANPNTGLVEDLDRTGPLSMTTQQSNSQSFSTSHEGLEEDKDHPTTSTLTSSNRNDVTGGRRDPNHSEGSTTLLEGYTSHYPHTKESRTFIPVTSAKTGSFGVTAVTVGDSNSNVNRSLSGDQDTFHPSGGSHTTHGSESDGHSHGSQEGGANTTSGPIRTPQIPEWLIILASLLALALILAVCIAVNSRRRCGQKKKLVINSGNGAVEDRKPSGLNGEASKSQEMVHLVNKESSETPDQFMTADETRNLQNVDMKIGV
# No constants are given. Whether binding was seen depends on the method and setting. Some entries that bind do so weakly or less than the wild type.
# B1: AL-MN114-71 IgG1 LALA IAHA (antibody, V domains shown)
# VH: EVQLLESGGGLVQPGGSLRLSCAASGFSFRSFAMSWVRQAPGKGLEWVSAISGGGSSTFYADSVKGRFTISRDNSKNTLYLQMNSLRAEDTAVYYCARHYYSDSDYRSSAAMDYWGQGTLVTVSS
# VL: DIQMTQSPSSLSASVGDRVTITCRASQSISSYLNWYQQKPGKAPKLLIYAASTLQSGVPSRFSGSGSGTDFTLTISSLQPEDFATYYCQQDLYLLTFGQGTKLEIK
# B2: AL-MN114-444 IgG1 LALA IAHA (antibody, V domains shown)
# VH: EVQLLESGGGLVQPGGSLRLSCAASGFTFRSFAMSWVRQAPGKGLEWVSAISGGGSSTFYADSVKGRFTISRDNSKNTLYLQMNSLRAEDTAVYYCARHYYSDSDYRSSAAMDYWGQGTLVTVSS
# VL: DIQMTQSPSSLSASVGDRVTITCRASQSIGSYLNWYQQKPGKAPKLLIYSASSLQSGVPSRFSGSGSGTDFTLTISSLQPEDFATYYCQQDLYLLTFGQGTKLEIK
# B3: AL-MN114-465 IgG1 LALA IAHA (antibody, V domains shown)
# VH: EVQLLESGGGLVQPGGSLRLSCAASGFSFGSYAMSWVRQAPGKGLEWVSAISAGGSSTFYADSVKGRFTISRDNSKNTLYLQMNSLRAEDTAVYYCARHYYSDSDYRSSAAMDYWGQGTLVTVSS
# VL: DIQMTQSPSSLSASVGDRVTITCRASQSISSYLNWYQQKPGKAPKLLIYTASSLQSGVPSRFSGSGSGTDFTLTISSLQPEDFATYYCQQDLYLLTFGQGTKLEIK
# B4: AL-MN114-132 IgG1 LALA (antibody, V domains shown)
# VH: EVQLLESGGGLVQPGGSLRLSCAASGFTFSSYAMSWVRQAPGKGLEWVSAISGGGSSTYYADSVKGRFTISRDNSKNTLYLQMNSLRAEDTAVYYCARHYYSDSDYRSSAAMDYWGQGTLVTVSS
# VL: DIQMTQSPSSLSASVGDRVTITCRASQSISSYLNWYQQKPGKAPKLLIYAASSLQSGVPSRFSGSGSGTDFTLTISSLQPEDFATYYCQQDLYLLTFGQGTKLEIK
# B5: AL-MN114-132 IgG1 LALA IAHA (antibody, V domains shown)
# VH: EVQLLESGGGLVQPGGSLRLSCAASGFTFSSYAMSWVRQAPGKGLEWVSAISGGGSSTYYADSVKGRFTISRDNSKNTLYLQMNSLRAEDTAVYYCARHYYSDSDYRSSAAMDYWGQGTLVTVSS
# VL: DIQMTQSPSSLSASVGDRVTITCRASQSISSYLNWYQQKPGKAPKLLIYAASSLQSGVPSRFSGSGSGTDFTLTISSLQPEDFATYYCQQDLYLLTFGQGTKLEIK
# How the values were obtained:
# [1] = biological target: Human CD44v6 iso4-Fc (human) (UniProt P16070); test: SPR SCK, antibody immobilised
# [2] = biological target: Cynomolgus v6-peptide (cynomolgus); test: SPR SCK, antibody immobilised
Binder,binding [1],binding [2]
B1,binds,binds
B2,binds,binds
B3,binds,binds
B4,–,binds
B5,–,binds
